According to article PMC3747992:
These are yes or no findings as the source states them, for the method shown. Binding seen in cells or lysates may run through a third protein. Some binding calls cover weakened binding; strength is not graded here.

By UniProt entry, the sequences of proteins in these tests, tags left out.
UniProt P40337: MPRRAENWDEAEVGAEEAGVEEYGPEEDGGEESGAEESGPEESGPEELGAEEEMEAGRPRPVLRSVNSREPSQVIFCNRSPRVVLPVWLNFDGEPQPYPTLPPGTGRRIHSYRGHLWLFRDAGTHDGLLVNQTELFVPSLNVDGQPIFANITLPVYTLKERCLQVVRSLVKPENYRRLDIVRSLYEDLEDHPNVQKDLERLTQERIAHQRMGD

What was measured:
[1] = molecular target: T1, heterogeneous nuclear ribonucleoprotein L (hnRNP L), endogenous (human (endogenous in U937 and primary PBM)) (UniProt P14866); test: condition: only hypoxia for 24 h in the presence of IFN-γ; co-IP; IP with anti-hnRNP L antibody from lysates of U937 cells kept in hypoxia for 24 h with IFN-γ; immunoblot for VHL
T1 sequence: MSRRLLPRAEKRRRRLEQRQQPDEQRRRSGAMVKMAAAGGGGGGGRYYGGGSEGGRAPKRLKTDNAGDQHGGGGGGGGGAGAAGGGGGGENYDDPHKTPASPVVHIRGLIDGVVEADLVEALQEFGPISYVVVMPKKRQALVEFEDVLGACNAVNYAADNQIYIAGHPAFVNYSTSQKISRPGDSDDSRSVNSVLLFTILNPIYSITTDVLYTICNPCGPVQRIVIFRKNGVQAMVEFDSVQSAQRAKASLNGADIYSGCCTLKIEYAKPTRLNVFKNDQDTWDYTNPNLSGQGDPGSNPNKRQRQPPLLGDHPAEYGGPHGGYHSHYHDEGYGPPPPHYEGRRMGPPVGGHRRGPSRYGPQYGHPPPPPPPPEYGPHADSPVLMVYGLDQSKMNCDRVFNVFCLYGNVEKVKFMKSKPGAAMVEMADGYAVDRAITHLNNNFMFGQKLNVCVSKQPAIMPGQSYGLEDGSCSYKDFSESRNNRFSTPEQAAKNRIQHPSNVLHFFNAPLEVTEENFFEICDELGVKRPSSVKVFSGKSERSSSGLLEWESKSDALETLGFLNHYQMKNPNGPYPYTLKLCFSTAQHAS

[2] = molecular target: T1, heterogeneous nuclear ribonucleoprotein L (hnRNP L), endogenous (human (endogenous in U937 and primary PBM)); test: co-IP; IP with anti-hnRNP L antibody from lysates of U937 cells and primary human PBM treated with IFN-γ in normoxia or hypoxia for 24 h; lysates with or without RNase A; immunoblot for hnRNP A2/B1, DRBP76, VHL; also after HA-VHL overexpression in hypoxia (Figure S7)

In the case of “von Hippel-Lindau protein (VHL), endogenous (from UniProt P40337 1-213)”, the binding [1] is reported as “no binding” and the binding [2] is reported as “binds”.
